Experimental data reported in publication PMC11516166.
Results are given in words; binding and its absence hold for the method and conditions named. Binding seen in cells or lysates may run through a third protein. Some results given as binding are weak or reduced against the parent protein; the word gives no strength. Where a sequence is shown, tags or fusion partners need not be part of it.

By UniProt entry, the sequences of proteins in these tests, tags left out.
UniProt O00139: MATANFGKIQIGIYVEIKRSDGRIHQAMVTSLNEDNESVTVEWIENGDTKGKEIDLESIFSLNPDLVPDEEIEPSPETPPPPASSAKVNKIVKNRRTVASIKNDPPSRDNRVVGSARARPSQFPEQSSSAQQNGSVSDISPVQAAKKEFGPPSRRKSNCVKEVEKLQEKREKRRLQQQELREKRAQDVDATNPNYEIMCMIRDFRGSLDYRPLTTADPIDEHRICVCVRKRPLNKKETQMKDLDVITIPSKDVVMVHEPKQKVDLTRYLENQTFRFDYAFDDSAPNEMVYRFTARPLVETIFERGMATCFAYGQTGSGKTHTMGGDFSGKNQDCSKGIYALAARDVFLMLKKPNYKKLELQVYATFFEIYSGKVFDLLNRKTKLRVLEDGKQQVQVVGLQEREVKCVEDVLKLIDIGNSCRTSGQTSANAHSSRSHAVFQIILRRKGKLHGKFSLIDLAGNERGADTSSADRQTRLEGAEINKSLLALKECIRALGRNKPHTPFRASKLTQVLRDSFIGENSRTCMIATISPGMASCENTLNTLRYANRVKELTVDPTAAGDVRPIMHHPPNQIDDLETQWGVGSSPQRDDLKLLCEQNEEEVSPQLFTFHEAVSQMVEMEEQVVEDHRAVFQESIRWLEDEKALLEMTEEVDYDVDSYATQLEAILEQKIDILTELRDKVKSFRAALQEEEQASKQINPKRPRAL

Assays:
[1] = target: T1, HA-SMEK1 (Suppressor of Mek1) (human) (UniProt Q6IN85); assay: co-IP; HEK 293T cells co-transfected; lysed in cold IP lysis buffer by ultrasonography; extracts incubated with primary antibodies and Dynabeads Protein G at 4 °C for 3 h; immunoblot; which antibody precipitated is not told
T1 sequence: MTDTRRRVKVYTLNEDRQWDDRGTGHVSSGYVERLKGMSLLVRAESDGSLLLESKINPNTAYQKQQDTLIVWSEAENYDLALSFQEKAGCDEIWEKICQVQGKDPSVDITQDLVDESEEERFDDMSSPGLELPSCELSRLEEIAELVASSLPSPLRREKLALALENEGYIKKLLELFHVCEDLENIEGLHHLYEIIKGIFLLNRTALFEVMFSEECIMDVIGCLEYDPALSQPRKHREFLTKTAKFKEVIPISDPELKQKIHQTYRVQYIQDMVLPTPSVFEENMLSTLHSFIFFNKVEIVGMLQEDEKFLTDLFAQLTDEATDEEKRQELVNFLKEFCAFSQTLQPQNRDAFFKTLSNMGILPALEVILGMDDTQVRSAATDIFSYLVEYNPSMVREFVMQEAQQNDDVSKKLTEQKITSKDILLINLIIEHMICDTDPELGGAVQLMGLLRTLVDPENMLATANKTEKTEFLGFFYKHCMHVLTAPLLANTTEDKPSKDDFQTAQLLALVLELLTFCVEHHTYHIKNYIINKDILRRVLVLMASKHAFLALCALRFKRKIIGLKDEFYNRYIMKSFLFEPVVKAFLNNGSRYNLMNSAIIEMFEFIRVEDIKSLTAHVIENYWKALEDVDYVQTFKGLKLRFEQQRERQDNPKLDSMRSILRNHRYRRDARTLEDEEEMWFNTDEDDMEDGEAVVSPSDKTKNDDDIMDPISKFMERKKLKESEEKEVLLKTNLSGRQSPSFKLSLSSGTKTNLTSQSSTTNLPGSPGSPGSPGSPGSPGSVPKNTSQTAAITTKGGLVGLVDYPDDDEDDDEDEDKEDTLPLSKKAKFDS

[2] = target: T1, HA-SMEK1 (Suppressor of Mek1) (human); assay: proximity ligation; Duolink in situ proximity ligation assay of Myc-KIF2A and HA-SMEK1 in the HEK 293T cell line

Q: With “Myc-KIF2A (kinesin family member 2A) (from UniProt O00139 1-706)” as the substance, how does the binding [1] read?
A: Its binding is “binds”.

Q: And the binding [2]?
A: Its binding is “binds”.
